In article PMC13215057 one finds binding data, which are given here for 3 molecules.

Sequences of proteins named here, by UniProt entry; tags and fusion partners are left off. A change or cut given only in a name is not applied to a line headed by its entry.
UniProt Q9R0T4: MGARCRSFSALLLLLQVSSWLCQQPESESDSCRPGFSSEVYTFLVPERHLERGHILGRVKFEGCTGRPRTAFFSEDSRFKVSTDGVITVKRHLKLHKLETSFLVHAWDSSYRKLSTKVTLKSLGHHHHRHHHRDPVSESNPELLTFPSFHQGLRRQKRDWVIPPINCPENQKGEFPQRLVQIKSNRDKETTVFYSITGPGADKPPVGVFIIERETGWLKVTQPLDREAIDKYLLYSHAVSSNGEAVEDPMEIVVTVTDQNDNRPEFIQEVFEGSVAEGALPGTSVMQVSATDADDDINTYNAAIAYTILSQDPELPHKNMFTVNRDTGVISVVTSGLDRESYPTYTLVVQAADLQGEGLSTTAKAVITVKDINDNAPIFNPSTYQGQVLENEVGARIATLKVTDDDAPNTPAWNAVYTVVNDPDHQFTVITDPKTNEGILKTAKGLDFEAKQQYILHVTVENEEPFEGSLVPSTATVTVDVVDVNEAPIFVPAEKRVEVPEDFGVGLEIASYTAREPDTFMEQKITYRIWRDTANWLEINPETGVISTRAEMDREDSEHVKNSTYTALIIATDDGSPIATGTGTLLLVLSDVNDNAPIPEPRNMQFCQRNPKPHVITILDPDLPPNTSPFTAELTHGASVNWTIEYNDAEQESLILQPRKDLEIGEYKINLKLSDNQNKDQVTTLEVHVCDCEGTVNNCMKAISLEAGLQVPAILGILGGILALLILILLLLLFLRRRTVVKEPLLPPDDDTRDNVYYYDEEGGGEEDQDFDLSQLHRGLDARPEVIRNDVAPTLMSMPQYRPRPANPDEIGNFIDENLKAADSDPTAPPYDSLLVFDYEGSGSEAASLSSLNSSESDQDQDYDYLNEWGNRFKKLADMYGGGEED

Results are given in words; binding and its absence hold for the method and conditions named. In cells and extracts the contact can be indirect. Binding calls can cover weak binding; strength is not graded here.

In experiment [1] the target is GFP-tagged E-cadherin (rat) (UniProt Q9R0T4). As to the kind of experiment: cross-linking + co-IP; ReCLIP: Can 10 cells expressing GFP-tagged E- or N-cadherin treated with 0.5 mM DSP (thiol-cleavable cross-linker) 30 min at RT, lysed in RIPA buffer, precipitated with anti-GFP antibody on protein G Sepharose 2 h at 4°C, eluted with reducing agents, blotted for E-cadherin, N-cadherin, GFP.

In experiment [2] the target is GFP-tagged N-cadherin (rat), Q9Z1Y3. The description is as above. The settings on record: remark: other sources report otherwise.
Experiment [3] deals with E-cadherin (endogenous, Can 10 cells) (rat (endogenous in Can 10)). As to the kind of experiment: cross-linking + co-IP; ReCLIP of endogenous proteins: Can 10 cells treated with 0.5 mM DSP 30 min at RT, lysed in RIPA buffer, precipitated with control IgG, anti-E-cadherin or anti-N-cadherin antibody on protein G Sepharose 2 h at 4°C, eluted with reducing agents, immunoblot.

With “N-cadherin (endogenous, Can 10 cells) (from UniProt Q9Z1Y3 160-906)”, the binding result in experiment [1] is recorded as “binds weakly”.

B1: N-cadherin (endogenous, Can 10 cells), Q9Z1Y3 160-906 (protein)
chain: DWVIPPINLPENSRGPFPQELVRIRSDRDKNLSLRYSVTGPGADQPPTGIFIINPISGQLSVTKPLDRELIARFHLRAHAVDINGNQVENPIDIVINVIDMNDNRPEFLHQVWNGSVPEGSKPGTYVMTVTAIDADDPNALNGMLRYRILSQAPSTPSPNMFTINNETGDIITVAAGLDREKVQQYTLIIQATDMEGNPTYGLSNTATAVITVTDVNDNPPEFTAMTFYGEVPENRVDVIVANLTVTDKDQPHTPAWNAAYRISGGDPTGRFAILTDPNSNDGLVTVVKPIDFETNRMFVLTVAAENQVPLAKGIQHPPQSTATVSVTVIDVNENPYFAPNPKIIRQEEGLHAGTMLTTLTAQDPDRYMQQNIRYTKLSDPANWLKIDPVNGQITTIAVLDRESPNVKNNIYNATFLASDNGIPPMSGTGTLQIYLLDINDNAPQVLPQEAETCETPEPNSINITALDYDIDPNAGPFAFDLPLSPATIKRNWTITRLNGDFAQLNLKIKFLEAGIYEVPIVITDSGNPPKSNISILRVKVCQCDSNGDCTDVDRIVGAGLGTGTIIAILLCIIILLILVLMFVVWMKRRDKERQAKQLLIDPEDDVRDNILKYDEEGGGEEDQDYDLSQLQQPDTVEPDAIKPVGIRRLDERPIHAEPQYPVRSAAPHPGDIGDFINEGLKAADNDPTAPPYDSLLVFDYEGSGSTAGSLSSLNSSSSGGDQDYDYLNDWGPRFKKLADMYGGGDD
As for B1, the binding result in experiment [2] is “binds”.

B2: ARVCF (endogenous, Can 10 cells) (protein, UniProt B4F7F3 1-973)
chain: MEDCNVHSAASILASVKEQEARFERLTRALEQERRHVALQLERAQQPGMSSGGMVGSGQPLPMAWQQLVLQEQSPGSQASLATMPEAPEVLEETVTVEEDPGTPTSHVSIVTSEDGTTRRTETKVTKTVKTVTTRTVRQVPLGPDGLPLLDGGPPLGSFADGPLDRHYVLRGGGPAATLSRAYLSSGGGFPDGPEPRDIPSYGSLSRGLGVRPPRTGLLGPGPGDGCFTLPGRREAFPMGSESGPPSGRSLPEHFQAEPYGLEDDTRSLAADDEGGPDLEPDYSTATRRRPEYGRGLRARALEDTADDTGELVEERPPFPAATAPLAQPERGSLGSLDRVVRRSPSVDSTRKEPRWRDPELPEVLAMLRHPVDPVKANAAAYLQHLCFENEGIKRRVRQLRGLPLLVALLDHPRAEVRRRACGALRNLSYGRDADNKAAIRDCGGVPALVRLLRAARDNEVRELVTGTLWNLSSYEPLKMVIIDHGLQTLTHEVIVPHSGWEREPNEDSKPRDAEWTTVFKNTSGCLRNVSSDGAEARRRLRECEGLVDALLHALQSAVGRKDTDNKSVENCVCIMRNLSYHVHKEVPGADRYQEVEPGIPGSAATSQRRRKDDASCFGGKKAKGKKDAEADRNFDTLDLPKRTEAAKGFELLYQPEVVRLYLSLLTESRNFNTLEAAAGALQNLSAGNWMWATYIRATVRKERGLPVLVELLQSETDKVVRAVAIALRNLSLDQRNKDLIGSYAMTELVRNVRNAQAPAHPSAHLEEDTVVAVLNTIHEIVSDSLDNARSLLQARGVPALVALVASSQSVREAKAASHVLQTVWSYKELRGALQRDGWTKAHFQSASTAKGPKGTPNSGGFDDSTLPLVDKNLDGEKSTTRDVIPMDTLGPDGYSTVDRRERRTLGSDSIGDSSEKELLKGPGPAVCSSDHMEVIGRGPSGTDPVLGPGAPPFCVGLAKPLVYLALPSSLLS
As to B2, in experiment [3], the binding entry is “binds”.
